From the supplement of paper PMC3545927
Only a part is listed here, and it is no random draw.

Protein sequences, listed by entry. Tags and fused reporters are not part of them.
furin, P09958, UniProt P09958, whole entry: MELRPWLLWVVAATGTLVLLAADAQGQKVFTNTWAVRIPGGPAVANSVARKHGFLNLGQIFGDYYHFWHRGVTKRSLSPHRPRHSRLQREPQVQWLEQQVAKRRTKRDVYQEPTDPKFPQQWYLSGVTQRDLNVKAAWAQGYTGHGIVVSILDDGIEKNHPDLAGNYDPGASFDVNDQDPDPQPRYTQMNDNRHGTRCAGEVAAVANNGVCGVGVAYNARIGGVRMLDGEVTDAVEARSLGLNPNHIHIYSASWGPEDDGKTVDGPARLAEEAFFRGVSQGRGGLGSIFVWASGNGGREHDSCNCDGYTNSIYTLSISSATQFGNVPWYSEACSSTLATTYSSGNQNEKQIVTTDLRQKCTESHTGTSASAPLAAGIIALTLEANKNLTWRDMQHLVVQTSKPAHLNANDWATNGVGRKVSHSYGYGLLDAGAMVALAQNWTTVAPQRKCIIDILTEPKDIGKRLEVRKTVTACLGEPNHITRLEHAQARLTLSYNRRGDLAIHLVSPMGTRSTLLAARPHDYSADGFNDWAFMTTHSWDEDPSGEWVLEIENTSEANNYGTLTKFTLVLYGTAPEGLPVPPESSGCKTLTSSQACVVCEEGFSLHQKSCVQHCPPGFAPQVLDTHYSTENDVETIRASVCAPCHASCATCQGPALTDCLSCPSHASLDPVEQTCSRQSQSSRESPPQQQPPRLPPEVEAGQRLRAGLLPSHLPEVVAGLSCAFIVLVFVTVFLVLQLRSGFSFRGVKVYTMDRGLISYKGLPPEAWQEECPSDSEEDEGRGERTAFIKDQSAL

Molecular target: furin, P09958
Experiment: furin cleavage Z-score vs untreated control; higher = more cleavage, active = 3.5 or more, inactive = 1 or less, 8 variable residues between constant flanks
In short: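 Purified furin digested bead-held 8-mer peptide–cDNA fusions at 1:10 enzyme:substrate in 0.01 ml of 50 mM HEPES pH 7.5 with CaCl2 and NaCl for 7.5, 15 or 30 min. The cleavage Z-score compares sequencing counts of released DNA with furin-free reactions on a log scale, with lowess adjustment and median absolute deviation scaling.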

B1: HC1924 (peptide)
chain: CATTPCSGSIAGNASASA
B1 was tested, and the “furin cleavage Z-score” value (7.5 min) was inactive: -0.658, the “furin cleavage Z-score” value (15 min) was inactive: -0.276 and the “furin cleavage Z-score” value (30 min) was inactive: -1.61.

B2: FS-3053 (peptide)
chain: CARRKRHDIAAGNASASA
In the case of B2, the “furin cleavage Z-score” value (7.5 min) is reported as active: 9.56, the “furin cleavage Z-score” value (15 min) is reported as active: 8.72 and the “furin cleavage Z-score” value (30 min) is reported as active: 8.78.

B3: FS-102 (peptide)
chain: CAVALRLRRSAGNASASA
For B3, the “furin cleavage Z-score” value (7.5 min) was 2.12, the “furin cleavage Z-score” value (15 min) was 1.69 and the “furin cleavage Z-score” value (30 min) was 1.38.

B4: HC1218 (peptide)
chain: CAQVPSPEFFAGNASASA
With B4 the “furin cleavage Z-score” value (7.5 min) was inactive: -1.13, the “furin cleavage Z-score” value (15 min) was inactive: -0.661 and the “furin cleavage Z-score” value (30 min) was inactive: 0.459.

B5: FS-1197 (peptide)
chain: CAGCQRCRRSAGNASASA
In the case of B5, the “furin cleavage Z-score” value (7.5 min) is reported as 1.39, the “furin cleavage Z-score” value (15 min) is reported as 1.55 and the “furin cleavage Z-score” value (30 min) is reported as 1.46.

B6: FS-57 (peptide)
chain: CALRSRSGRSAGNASASA
In the case of B6, the “furin cleavage Z-score” value (7.5 min) is reported as active: 4.75, the “furin cleavage Z-score” value (15 min) is reported as active: 5.58 and the “furin cleavage Z-score” value (30 min) is reported as active: 4.32.

B7: FS-834 (peptide)
chain: CANNHVYRRSAGNASASA
With B7 the “furin cleavage Z-score” value (15 min) was active: 4.48.

B8: FS-893 (peptide)
chain: CAVRGRVRRAAGNASASA
For B8, the “furin cleavage Z-score” value (7.5 min) was 2.92, the “furin cleavage Z-score” value (15 min) was 2.27 and the “furin cleavage Z-score” value (30 min) was 1.84.

B9: HC2379 (peptide)
chain: CAEVPCHPPSAGNASASA
With B9 the “furin cleavage Z-score” value (7.5 min) was 1.73, the “furin cleavage Z-score” value (15 min) was 2.57 and the “furin cleavage Z-score” value (30 min) was 1.61.

B10: HC37 (peptide)
chain: CAMEECYQHLAGNASASA
With B10 the “furin cleavage Z-score” value (7.5 min) was 3.06, the “furin cleavage Z-score” value (15 min) was 1.58 and the “furin cleavage Z-score” value (30 min) was 2.4.

B11: FS-2676 (peptide)
chain: CARHHRDLDEAGNASASA
For B11, the “furin cleavage Z-score” value (7.5 min) was 1.7, the “furin cleavage Z-score” value (15 min) was 2.24 and the “furin cleavage Z-score” value (30 min) was 3.13.

B12: FS-3122 (peptide)
chain: CARVPRSDGKAGNASASA
With B12 the “furin cleavage Z-score” value (7.5 min) was 1.72, the “furin cleavage Z-score” value (15 min) was 2.58 and the “furin cleavage Z-score” value (30 min) was 2.19.

B13: FS-7 (peptide)
chain: CAAPRRLRRAAGNASASA
For B13, the “furin cleavage Z-score” value (7.5 min) was active: 6.44, the “furin cleavage Z-score” value (15 min) was active: 6.75 and the “furin cleavage Z-score” value (30 min) was active: 5.94.

B14: HC112 (peptide)
chain: CAVVCCDMSYAGNASASA
With B14 the “furin cleavage Z-score” value (7.5 min) was 1.1, the “furin cleavage Z-score” value (15 min) was 1.29 and the “furin cleavage Z-score” value (30 min) was 1.05.

B15: FS-1556 (peptide)
chain: CAQERRLKRIAGNASASA
For B15, the “furin cleavage Z-score” value (7.5 min) was 1.75, the “furin cleavage Z-score” value (15 min) was 2.01 and the “furin cleavage Z-score” value (30 min) was 2.6.

B16: FS-1847 (peptide)
chain: CANFKRSVASAGNASASA
B16 was tested, and the “furin cleavage Z-score” value (7.5 min) was inactive: 0.0489, the “furin cleavage Z-score” value (15 min) was 1.11 and the “furin cleavage Z-score” value (30 min) was inactive: 0.734.

B17: FS-1097 (peptide)
chain: CATPRRYKRPAGNASASA
With B17 the “furin cleavage Z-score” value (7.5 min) was 2.44, the “furin cleavage Z-score” value (15 min) was 3.16 and the “furin cleavage Z-score” value (30 min) was 1.19.

B18: FS-1142 (peptide)
chain: CANDDRSKRDAGNASASA
With B18 the “furin cleavage Z-score” value (7.5 min) was 2.32, the “furin cleavage Z-score” value (15 min) was 2.58 and the “furin cleavage Z-score” value (30 min) was 2.7.

B19: FS-1898 (peptide)
chain: CARIKRQHSSAGNASASA
With B19 the “furin cleavage Z-score” value (7.5 min) was active: 4.55, the “furin cleavage Z-score” value (15 min) was active: 5.06 and the “furin cleavage Z-score” value (30 min) was active: 4.01.

B20: FS-3145 (peptide)
chain: CAWVKRDTFCAGNASASA
For B20, the “furin cleavage Z-score” value (7.5 min) was 2.23, the “furin cleavage Z-score” value (15 min) was 1.42 and the “furin cleavage Z-score” value (30 min) was 1.2.

B21: FS-2279 (peptide)
chain: CARLRRRREGAGNASASA
With B21 the “furin cleavage Z-score” value (7.5 min) was 1.83, the “furin cleavage Z-score” value (15 min) was 1.88 and the “furin cleavage Z-score” value (30 min) was 1.54.

B22: FS-3073 (peptide)
chain: CARSARKSNFAGNASASA
For B22, the “furin cleavage Z-score” value (7.5 min) was inactive: -1.18, the “furin cleavage Z-score” value (15 min) was inactive: 0.463 and the “furin cleavage Z-score” value (30 min) was inactive: -0.0584.

B23: HC902 (peptide)
chain: CASRTQRRGRAGNASASA
In the case of B23, the “furin cleavage Z-score” value (7.5 min) is reported as 3, the “furin cleavage Z-score” value (15 min) is reported as 2.48 and the “furin cleavage Z-score” value (30 min) is reported as 2.1.

B24: HC1824 (peptide)
chain: CAITPCSGSWAGNASASA
B24 was tested, and the “furin cleavage Z-score” value (7.5 min) was inactive: -0.759, the “furin cleavage Z-score” value (15 min) was inactive: -0.739 and the “furin cleavage Z-score” value (30 min) was inactive: -0.66.

B25: FS-2602 (peptide)
chain: CARSKKAVWHAGNASASA
With B25 the “furin cleavage Z-score” value (7.5 min) was 1.57, the “furin cleavage Z-score” value (15 min) was 1.43 and the “furin cleavage Z-score” value (30 min) was 1.63.

B26: HC863 (peptide)
chain: CAAKLVALGIAGNASASA
In the case of B26, the “furin cleavage Z-score” value (7.5 min) is reported as inactive: 0.999, the “furin cleavage Z-score” value (15 min) is reported as inactive: -2.69 and the “furin cleavage Z-score” value (30 min) is reported as inactive: 0.907.

B27: FS-1269 (peptide)
chain: CARRRRRKKAAGNASASA
In the case of B27, the “furin cleavage Z-score” value (7.5 min) is reported as 2.51, the “furin cleavage Z-score” value (15 min) is reported as 3.36 and the “furin cleavage Z-score” value (30 min) is reported as 2.74.

B28: HC528 (peptide)
chain: CALWMMLLISAGNASASA
B28 was tested, and the “furin cleavage Z-score” value (7.5 min) was inactive: -0.863, the “furin cleavage Z-score” value (15 min) was inactive: -0.739 and the “furin cleavage Z-score” value (30 min) was inactive: -0.913.

B29: FS-2759 (peptide)
chain: CARQQRASRGAGNASASA
In the case of B29, the “furin cleavage Z-score” value (7.5 min) is reported as 1.49, the “furin cleavage Z-score” value (15 min) is reported as 1.98 and the “furin cleavage Z-score” value (30 min) is reported as 2.01.

B30: FS-1270 (peptide)
chain: CARRRSSKRAAGNASASA
B30 was tested, and the “furin cleavage Z-score” value (7.5 min) was 2.32, the “furin cleavage Z-score” value (15 min) was 3.16 and the “furin cleavage Z-score” value (30 min) was 3.12.

B31: FS-212 (peptide)
chain: CAAFSRAYRSAGNASASA
B31 was tested, and the “furin cleavage Z-score” value (7.5 min) was 2.67, the “furin cleavage Z-score” value (15 min) was 1.71 and the “furin cleavage Z-score” value (30 min) was 3.1.

B32: EK6 (peptide)
chain: CAEGERGFFYAGNASASA
B32 was tested, and the “furin cleavage Z-score” value (7.5 min) was inactive: -2.12, the “furin cleavage Z-score” value (15 min) was inactive: -0.423 and the “furin cleavage Z-score” value (30 min) was inactive: -2.28.

B33: HC2265 (peptide)
chain: CALLEVVTSTAGNASASA
For B33, the “furin cleavage Z-score” value (7.5 min) was 1.42, the “furin cleavage Z-score” value (15 min) was 1.27 and the “furin cleavage Z-score” value (30 min) was 1.4.

B34: HC343 (peptide)
chain: CAVGNWAKVLAGNASASA
B34 was tested, and the “furin cleavage Z-score” value (7.5 min) was 1.09, the “furin cleavage Z-score” value (15 min) was 1.18 and the “furin cleavage Z-score” value (30 min) was 2.08.

B35: HC258 (peptide)
chain: CARNSTGLYHAGNASASA
B35 was tested, and the “furin cleavage Z-score” value (7.5 min) was inactive: 0.587, the “furin cleavage Z-score” value (15 min) was inactive: -0.804 and the “furin cleavage Z-score” value (30 min) was inactive: -0.846.

B36: FS-2573 (peptide)
chain: CARLRRDVSRAGNASASA
With B36 the “furin cleavage Z-score” value (7.5 min) was 1.84, the “furin cleavage Z-score” value (15 min) was 2.31 and the “furin cleavage Z-score” value (30 min) was 3.13.

B37: FS-4 (peptide)
chain: CAAGGRGPREAGNASASA
In the case of B37, the “furin cleavage Z-score” value (7.5 min) is reported as 2.6, the “furin cleavage Z-score” value (15 min) is reported as 3.28 and the “furin cleavage Z-score” value (30 min) is reported as 2.72.
